The structures appear in SMILES notation.

The data set can be described thus: Rectal circulation with fatty acids as promoters (Example 15, Example 1 repeated). The conditions noted are these: Table 9, fatty acid 0.1 W/V %. How it is done:
Absorption effects under conditions with various tonicities were examined.
The experiment was conducted in the following manner.
(The units in the Table are percents.)

With `CC(C)CC(=O)O` [Isovaleric acid, isovaleric acid], the “medicine disappeared by absorption, Osmotic pressure X 1” value (X 1) was 7.7 percents. Under “X 4”, the “medicine disappeared by absorption, Osmotic pressure X 4” value was 14.4 percents.

The values above are taken from patent US4900730A, “Preparation which promotes the absorption of peptides” (priority 1981, dated 1990).
